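Human melanoma cells were exposed to a single drug for 72 h in 1,536-well plates and read by automated microscopy after fixing and staining. The read-out is the fraction of cleaved-PARP-positive nuclei, in % of that fraction in the DMSO control; 200 means twice the control level of this apoptosis marker. Every drug was used at one fixed concentration, the higher of two screened. The file gives one value for each drug and line, without errors, so small differences may be noise. The marker varies much from line to line, for technical or biological reasons.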 Only some of the drugs and lines screened are listed, without regard to their results. A dash means that no value is listed here.

Compounds and concentrations:
crizotinib, 1 µM: C[C@@H](Oc1cc(-c2cnn(C3CCNCC3)c2)cnc1N)c1c(Cl)ccc(F)c1Cl
NVP-TAE684, 0.4 µM: COc1cc(N2CCC(N3CCN(C)CC3)CC2)ccc1Nc1ncc(Cl)c(Nc2ccccc2S(=O)(=O)C(C)C)n1
embelin, 6 µM: CCCCCCCCCCCC1=C(O)C(=O)C=C(O)C1=O
vincristine, 0.0005 µM: CC[C@]1(O)C[C@H]2CN(CCc3c([nH]c4ccccc34)[C@@](C(=O)OC)(c3cc4c(cc3OC)N(C=O)[C@H]3[C@@](O)(C(=O)OC)[C@H](OC(C)=O)[C@]5(CC)C=CCN6CC[C@]43[C@@H]65)C2)C1
ABT-263, 2 µM: CC1(C)CCC(c2ccc(Cl)cc2)=C(CN2CCN(c3ccc(C(=O)NS(=O)(=O)c4ccc(N[C@H](CCN5CCOCC5)CSc5ccccc5)c(S(=O)(=O)C(F)(F)F)c4)cc3)CC2)C1
XAV939, 10 µM: Oc1nc(-c2ccc(C(F)(F)F)cc2)nc2c1CSCC2
indole-3-carbinol, 4 µM: OCc1c[nH]c2ccccc12
PD173074, 0.5 µM: CCN(CC)CCCCNc1ncc2cc(-c3cc(OC)cc(OC)c3)c(NC(=O)NC(C)(C)C)nc2n1
MK-1775, 0.1 µM: C=CCn1c(=O)c2cnc(Nc3ccc(N4CCN(C)CC4)cc3)nc2n1-c1cccc(C(C)(C)O)n1
dovitinib, 0.5 µM: CN1CCN(c2ccc3nc(-c4c(N)c5c(F)cccc5[nH]c4=O)[nH]c3c2)CC1
JZL184, 5 µM: O=C(Oc1ccc([N+](=O)[O-])cc1)N1CCC(C(O)(c2ccc3c(c2)OCO3)c2ccc3c(c2)OCO3)CC1
midostaurin, 0.4 µM: CO[C@@H]1[C@H](N(C)C(=O)c2ccccc2)C[C@H]2O[C@]1(C)n1c3ccccc3c3c4c(c5c6ccccc6n2c5c31)C(=O)NC4
CP-690550, 5 µM: C[C@@H]1CCN(C(=O)CC#N)C[C@@H]1N(C)c1ncnc2[nH]ccc12
pazopanib, 2 µM: Cc1ccc(Nc2nccc(N(C)c3ccc4c(C)n(C)nc4c3)n2)cc1S(N)(=O)=O
selumetinib, 0.075 µM: Cn1cnc2c(F)c(Nc3ccc(Br)cc3Cl)c(C(=O)NOCCO)cc21
bexarotene, 10 µM: C=C(c1ccc(C(=O)O)cc1)c1cc2c(cc1C)C(C)(C)CCC2(C)C
SNS-314, 0.004 µM: O=C(Nc1cccc(Cl)c1)Nc1ncc(CCNc2ncnc3ccsc23)s1
GSK0660, 5 µM: COC(=O)c1sccc1S(=O)(=O)Nc1ccc(Nc2ccccc2)cc1OC
tamatinib, 2 µM: COc1cc(Nc2ncc(F)c(Nc3ccc4c(n3)NC(=O)C(C)(C)O4)n2)cc(OC)c1OC
FK866, 0.05 µM: O=C(/C=C/c1cccnc1)NCCCCC1CCN(C(=O)c2ccccc2)CC1
tipifarnib, 0.05 µM: Cn1cncc1[C@@](N)(c1ccc(Cl)cc1)c1ccc2c(c1)c(-c1cccc(Cl)c1)cc(=O)n2C
KU-55933, 5 µM: O=c1cc(-c2cccc3c2Sc2ccccc2S3)oc(N2CCOCC2)c1
GW9662, 10 µM: O=C(Nc1ccccc1)c1cc([N+](=O)[O-])ccc1Cl

| Drug | A101D | SK-MEL-28 | RVH-421 | A2058 | COLO 829 | G-361 | 501mel | WM1716 | SK-MEL-5 | UACC-257 | LOX IMVI | WM3619 |
|---|---|---|---|---|---|---|---|---|---|---|---|---|
| indole-3-carbinol | 129 | 48.8 | 126 | 102 | 147 | 84.1 | - | 61.4 | 32.9 | 62.3 | 41.8 | 74.3 |
| GSK0660 | 242 | 166 | 189 | 96.6 | 123 | 84.1 | 67.6 | 45.7 | 242 | 95.7 | 93.6 | 113 |
| midostaurin | 194 | 114 | 43.5 | 154 | 72.6 | 146 | - | 134 | 485 | 134 | 141 | 102 |
| PD173074 | 54.5 | 98.9 | 134 | 81.8 | 117 | 92.0 | 167 | 169 | 131 | 118 | 168 | 104 |
| XAV939 | 105 | 161 | 85.8 | 89.0 | 63.9 | 76.9 | 226 | 26.3 | 197 | 29.9 | 120 | 102 |
| CP-690550 | 164 | 39.5 | 77.7 | 85.6 | 108 | 127 | - | 219 | 104 | 154 | 155 | 72.1 |
| pazopanib | 77.3 | 103 | 16.0 | 62.7 | 78.8 | 134 | - | 72.3 | 114 | 41.5 | 224 | 91.3 |
| JZL184 | 187 | 25.9 | 74.4 | 101 | 98.6 | 95.7 | 78.8 | 58.0 | 90.5 | 57.8 | 105 | 87.3 |
| SNS-314 | 47.8 | 131 | 66.9 | 107 | 290 | 161 | - | 102 | 107 | 129 | 267 | 142 |
| tipifarnib | 91.4 | 93.1 | 251 | 108 | 62.7 | 201 | - | 59.6 | 176 | 66.7 | 103 | 95.2 |
| KU-55933 | 405 | 228 | 203 | 99.1 | 57.1 | 46.3 | 79.3 | 113 | 69.9 | 55.7 | 75.0 | 91.7 |
| MK-1775 | 75.7 | 314 | 84.6 | 148 | 50.5 | 56.9 | - | 80.2 | 210 | 113 | 108 | 471 |
| bexarotene | 244 | 231 | 145 | 63.4 | 71.5 | 191 | - | 29.4 | 57.1 | 75.1 | 213 | 77.8 |
| tamatinib | 1850 | 29.5 | 68.9 | 101 | 97.1 | 147 | - | 223 | 45.9 | 152 | 294 | 92.4 |
| crizotinib | 83.8 | 83.7 | 169 | 185 | 180 | 42.4 | - | 29.2 | 203 | 180 | 43.1 | 127 |
| selumetinib | 233 | 89.3 | 160 | 136 | 123 | 278 | - | 156 | 159 | 87.8 | 70.7 | 125 |
| vincristine | 175 | 109 | 130 | 97.4 | 136 | 104 | - | 61.3 | 102 | 59.8 | 73.2 | 261 |
| ABT-263 | 65.9 | 466 | 217 | 87.0 | 122 | 209 | - | 1950 | 188 | 2130 | 364 | 96.3 |
| NVP-TAE684 | 121 | 31.9 | 106 | 248 | 135 | 201 | 204 | 110 | 147 | 72.0 | 103 | 178 |
| GW9662 | 106 | 257 | 85.0 | 77.4 | 121 | 68.2 | 84.6 | 86.0 | 119 | 75.8 | 120 | 134 |
| FK866 | 182 | 62.1 | 77.7 | 109 | 808 | 8910 | - | 40.5 | 60.7 | 105 | 50.7 | 123 |
| dovitinib | 43.5 | 194 | 94.3 | 473 | 222 | 250 | - | 177 | 184 | 110 | 169 | 122 |
| embelin | 81.1 | 232 | 59.4 | 69.8 | 144 | 229 | 151 | 112 | 28.0 | 223 | 80.2 | 125 |

The last 2 entries again:

Drug,A101D,SK-MEL-28,RVH-421,A2058,COLO 829,G-361,501mel,WM1716,SK-MEL-5,UACC-257,LOX IMVI,WM3619
dovitinib,43.5,194,94.3,473,222,250,-,177,184,110,169,122
embelin,81.1,232,59.4,69.8,144,229,151,112,28.0,223,80.2,125

From a melanoma drug combination screen (doi:10.1371/journal.pone.0140310); values rounded.